The target of the assay is HLA-G molecule (human) (UniProt P17693). The assay can be described thus: immunoblot of lysates of gastric cancer tissues of 62 patients. For orientation: Immunoblotting shows a protein as a band on a membrane.

Results are given in words; binding and its absence hold for the method and conditions named. Some results given as binding are weak or reduced against the parent protein; the word gives no strength.

B1: monoclonal antibody YWHG-1 against HLA-G molecule (antibody, V domains shown)
VH: QLQESGTVLVRPGASVKLSCKASGYIFTSYWINWVKQRPGQGLEWIGNIYPSDSYTNFNQKFEDKATLTVDTSSSTAYMQFSSPTSEDSAVYYCTRFGYPFDYWGQGTTLTVSS
VL: DIVITQDELSLTVSLGDQASISCRTSQSFVHSNGNIYLEWFLQKPGQSPKLLIYKVSSRFSGVPDRFSGSGSGTDFTLKISRVEAEDLGIYYCFQGSHVPPTFGGGTKLEIK
notes: FITC-labeled in the flow cytometry assay; also called hybridoma CCTCC NO: 202120
For B1, the binding entry was “binds”.

Values taken from patent US20250171543A1 (TAIZHOU ENZE MEDICAL CENTER GROUP, published 2025).
